{
  "sequences": {"note": "Protein sequences, listed by entry. Tags and fused reporters are not part of them. Residues count along the entry.", "UniProt P22646, residues 22-189": "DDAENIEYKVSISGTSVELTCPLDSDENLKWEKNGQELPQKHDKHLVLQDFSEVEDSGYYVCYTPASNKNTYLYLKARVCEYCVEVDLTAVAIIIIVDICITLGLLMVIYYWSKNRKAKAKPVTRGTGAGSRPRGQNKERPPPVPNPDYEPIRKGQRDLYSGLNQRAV"},
  "source": "patent US20080299137A1",
  "binders": {"B1": {"name": "anti-mCD3-mFc-mNKG2D fusion protein (heavy chain of anti-mouse CD3-murine Fc-ectodomain of murine NKG2D, co-expressed with the light chain of anti mouse CD3) (Fc fusion)", "heavy": "EVQLVESGGGLVQPGKSLKLSCEASGFTFSGYGMHWVRQAPGRGLESVAYITSSSINIKYADAVKGRFTVSRDNAKNLLFLQMNILKSEDTAMYYCARFDWDKNYWGQGTMVTVSSATTTAPSVYPLAPACDSTTSTTNTVTLGCLVKGYFPEPVTVSWNSGALTSGVHTFPSVLHSGLYSLSSSVTVPSSTWPSQTVTCNVAHPASSTKVDKKIVPRGDPRDCGCKPCICTVPEVSSVFIFPPKPKDVLTITLTPKVTCVVVDISKDDPEVQFSWFVDDVEVHTAQTKPREEQFNSTFRSVSELPIMHQDWLNGKEFKCRVNSAAFPAPIEKTISKTKGRPKAPQVYTIPPPKEQMAKDKVSLTCMITDFFPEDITVEWQWNGQPAENYKNTQPIMDTDGSYFVYSKLNVQKSNWEAGNTFTCSVLHEGLHNHHTEKSLSHSPGKDLCNKEVPVSSREGYCGPCPNNWICHRNNCYQFFNEEKTWNQSQASCLSQNSSLLKIYSKEEQDFLKLVKSYHWMGLVQIPANGSWQWEDGSSLSYNQLTLVEIPKGSCAVYGSSFKAYTEDCANLNTYICMKRAV", "light": "DIQMTQSPSSLPASLGDRVTINCQASQDISNYLNWYQQKPGKAPKLLIYYTNKLADGVPSRFSGSGSGRDSSFTISSLESEDIGSYYCQQYYNYPWTFGPGTKLEIKRADAKPTVSIFPPSSEQLGTGSATLVCFVNNFYPKDINVKWKVDGSEKRDGVLQSVTDQDSKDSTYSLSSTLSLTKADYERHNLYTCEVTHKTSTAAIVKTLNRNEC"}},
  "molecular_target": "CD3 found on T cells (murine T cells purified from fresh mouse spleen) (mouse) (UniProt P22646)",
  "assay": "flow cytometry (FACS) on murine spleen T cells",
  "note": "No constants are given. Whether binding was seen depends on the method and setting. Some entries that bind do so weakly or less than the wild type. Sequences can lack the tags named with a protein.",
  "data": [
    {"binder": "B1", "values": [
      {"measurement": "binding", "result": "binds"}
    ]}
  ]
}
